Experimental findings from paper PMC9856044 (Biomolecules, 2023) are described below.

This data set relates to HeLa cells. The data set is described as follows: Confocal microscopy co-localization assay in live HeLa cells. Format: cell-based, human. Conditions: 1 μM compound, 60 min.

Some compounds share one wording; it may come from a single statement.

Consider `COc1ccc2c(c1)SC(=Cc1[se]c3ccccc3[n+]1C)N2CCCS(=O)(=O)[O-]` [Compound 2, 3-(6-methoxy-2-((3-methylbenzo[d][1,3]selenazol-3-ium-2-yl)methylene)benzo[d]thiazol-3(2H)-yl)propane-1-sulfonate], for which the Intracellular localization result was “significant co-localization” and the “PCC ± SD (co-localization with MitoTracker Deep Red, corrected by RBNCC)” value (“PCC ± SD” below) is listed as 0.491 ± 0.0212.

Regarding `C[n+]1c(C=C2Sc3ccccc3N2CCCS(=O)(=O)[O-])[se]c2ccccc21` [Compound 1, 3-(2-((3-methylbenzo[d][1,3]selenazol-3-ium-2-yl)methylene)benzo[d]thiazol-3(2H)-yl)propane-1-sulfonate], the Intracellular localization entry was “significant co-localization” and the “PCC ± SD” value came to 0.675 ± 0.0297.

As for `C[n+]1c(/C=C2\Sc3ccccc3N2CCS)[se]c2ccccc21` [Compound 6, 2-((3-(2-mercaptoethyl)benzo[d]thiazol-2(3H)-ylidene)methyl)-3-methylbenzo[d][1,3]selenazol-3-ium methosulphate], the Intracellular localization result is listed as “significant co-localization” and the “PCC ± SD” value came out at 0.674 ± 0.1092.
